In test [1] the target is T1, Endogenous KIF27-GFP (mouse Kif27^GFP knock-in allele) (mouse) (UniProt Q7M6Z4).
T1 sequence: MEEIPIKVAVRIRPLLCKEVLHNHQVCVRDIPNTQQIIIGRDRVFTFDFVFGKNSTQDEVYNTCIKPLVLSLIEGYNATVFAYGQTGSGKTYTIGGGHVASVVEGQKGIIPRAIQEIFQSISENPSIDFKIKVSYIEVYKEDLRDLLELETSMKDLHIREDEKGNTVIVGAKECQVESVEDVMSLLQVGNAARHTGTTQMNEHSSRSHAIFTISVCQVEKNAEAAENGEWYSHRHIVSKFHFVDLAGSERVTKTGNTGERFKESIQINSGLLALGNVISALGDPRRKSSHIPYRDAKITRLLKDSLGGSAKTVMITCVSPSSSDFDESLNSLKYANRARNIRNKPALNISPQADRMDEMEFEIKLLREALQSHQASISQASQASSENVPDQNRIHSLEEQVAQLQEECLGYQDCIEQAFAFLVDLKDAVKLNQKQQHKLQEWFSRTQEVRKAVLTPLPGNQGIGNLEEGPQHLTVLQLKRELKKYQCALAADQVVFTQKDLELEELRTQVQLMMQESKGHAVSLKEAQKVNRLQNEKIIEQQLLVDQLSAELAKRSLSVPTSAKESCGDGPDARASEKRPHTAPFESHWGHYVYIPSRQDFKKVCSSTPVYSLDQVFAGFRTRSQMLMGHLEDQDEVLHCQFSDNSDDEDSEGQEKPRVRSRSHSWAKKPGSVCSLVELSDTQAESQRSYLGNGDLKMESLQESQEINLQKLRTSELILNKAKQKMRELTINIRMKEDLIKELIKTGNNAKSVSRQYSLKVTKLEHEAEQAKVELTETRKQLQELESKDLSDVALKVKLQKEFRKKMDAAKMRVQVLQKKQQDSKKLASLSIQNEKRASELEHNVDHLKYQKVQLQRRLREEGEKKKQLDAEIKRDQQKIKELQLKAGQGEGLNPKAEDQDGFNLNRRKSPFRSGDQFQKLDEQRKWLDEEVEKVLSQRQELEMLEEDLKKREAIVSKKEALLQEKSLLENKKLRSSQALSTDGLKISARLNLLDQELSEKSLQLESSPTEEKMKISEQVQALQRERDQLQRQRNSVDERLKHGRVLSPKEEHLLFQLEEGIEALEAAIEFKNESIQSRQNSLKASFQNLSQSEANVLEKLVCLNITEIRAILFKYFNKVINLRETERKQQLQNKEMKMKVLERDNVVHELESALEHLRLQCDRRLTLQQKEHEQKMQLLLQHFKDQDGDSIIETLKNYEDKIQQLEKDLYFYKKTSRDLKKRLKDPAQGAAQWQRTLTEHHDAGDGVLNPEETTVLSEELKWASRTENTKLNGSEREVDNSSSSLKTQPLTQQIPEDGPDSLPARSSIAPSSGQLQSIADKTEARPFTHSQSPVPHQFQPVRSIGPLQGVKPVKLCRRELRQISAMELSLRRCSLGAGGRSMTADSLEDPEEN
Put plainly: co-IP.

Test [2] concerns the target T2, HA-tagged full-length human CEP162 (human) (UniProt Q5TB80).
T2 sequence: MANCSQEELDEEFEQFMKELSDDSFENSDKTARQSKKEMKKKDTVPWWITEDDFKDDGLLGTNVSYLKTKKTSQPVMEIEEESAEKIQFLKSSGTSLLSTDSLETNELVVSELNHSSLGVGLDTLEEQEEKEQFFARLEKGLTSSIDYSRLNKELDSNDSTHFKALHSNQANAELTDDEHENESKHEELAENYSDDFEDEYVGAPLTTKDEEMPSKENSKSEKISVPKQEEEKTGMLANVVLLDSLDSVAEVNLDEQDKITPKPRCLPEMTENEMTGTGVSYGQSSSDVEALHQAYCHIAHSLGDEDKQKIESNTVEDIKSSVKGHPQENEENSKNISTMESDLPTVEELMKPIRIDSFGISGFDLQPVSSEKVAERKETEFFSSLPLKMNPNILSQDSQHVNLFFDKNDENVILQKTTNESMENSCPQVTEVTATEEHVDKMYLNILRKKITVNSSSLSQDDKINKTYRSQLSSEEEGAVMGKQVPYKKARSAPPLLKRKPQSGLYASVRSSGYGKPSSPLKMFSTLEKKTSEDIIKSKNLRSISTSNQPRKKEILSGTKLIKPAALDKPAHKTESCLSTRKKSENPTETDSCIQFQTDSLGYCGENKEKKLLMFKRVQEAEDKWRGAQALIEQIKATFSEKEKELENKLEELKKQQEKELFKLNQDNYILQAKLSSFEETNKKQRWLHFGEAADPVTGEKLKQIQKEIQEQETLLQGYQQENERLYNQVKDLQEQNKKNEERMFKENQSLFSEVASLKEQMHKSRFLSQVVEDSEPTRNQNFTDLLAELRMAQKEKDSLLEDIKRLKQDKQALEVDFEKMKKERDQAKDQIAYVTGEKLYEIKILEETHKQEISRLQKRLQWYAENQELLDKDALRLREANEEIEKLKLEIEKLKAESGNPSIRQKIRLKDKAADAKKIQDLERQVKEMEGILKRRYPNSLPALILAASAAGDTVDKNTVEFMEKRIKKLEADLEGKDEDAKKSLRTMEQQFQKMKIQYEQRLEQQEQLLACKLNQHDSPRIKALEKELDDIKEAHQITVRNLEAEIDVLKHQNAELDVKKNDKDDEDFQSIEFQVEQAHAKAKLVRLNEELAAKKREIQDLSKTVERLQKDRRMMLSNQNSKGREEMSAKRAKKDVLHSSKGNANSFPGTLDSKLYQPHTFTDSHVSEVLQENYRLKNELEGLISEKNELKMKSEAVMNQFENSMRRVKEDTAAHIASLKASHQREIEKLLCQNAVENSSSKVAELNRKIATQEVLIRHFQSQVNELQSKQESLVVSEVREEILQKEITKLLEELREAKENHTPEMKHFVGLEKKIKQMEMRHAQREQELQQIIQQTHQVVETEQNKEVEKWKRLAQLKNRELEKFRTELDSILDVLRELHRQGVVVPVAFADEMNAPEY
The test is described as follows: co-IP.

No constants are given. Whether binding was seen depends on the method and setting. Binding seen in cells or lysates may run through a third protein. Some binding calls cover weakened binding; strength is not graded here. Where a sequence is shown, tags or fusion partners need not be part of it.

B1: Endogenous CEP162 (mouse testis) (protein, UniProt Q6ZQ06 1-1403)
chain: MAHYFKVDLDEEFERFMKELSDDSFENSNKTPRQPNEDNKEMKKKDPVPWWIAEDDFEDDGLLGTNVSYLKTKKTYQPVMDTEEESAEKVQFLKSSGTSILSVDSLEANELVVSEPHHSTLGLGLDTLEEQEEKEQFFARLEKGLTSSIDYSKLNQELDSDDSAQLKALHRYPRNTEPAEDGCENESEQEELPETYSDDFEDAEDADDPLITKDEETHPKENSESGKDSFPKQEEEKTGMLANVVLLDSFDSVEDVGLSSQEKATPKAKAPPEITDDGPAETGVPYGQSSGDTEALHQAYCHVAHSLGDTGEPRIEASTVQTVRSSIKDGLQENEESSKNVSTTESDLPTVEELMQPIRIDSYGIRAFDLQPISLKKATDSKEAESVGSLPLKTNTNTVSQDTRHAIQFPHKHDESVVLHRTADEGMGSSCPATEEHLDKMYLEILKKKTSVNPSLLPQDDKMNQTSRSQLGAGEEVPVIGKQVPCKKARSTPSLPKRKPQSGLYASARSSGYGKPSSPLQLFSALEKKTSKDNTKTKSVRSIPTSNQFRKREILSGTKLIKPAASNKPSPHREGSPATPKRPEDPSDDSFVQLQTEPLGSYGGNREKELLMLKRAQDAEEKWTGAQALMEQMKMTFCEKEKELENTVESLKRQQERELFRLNQENYILQAKLSSFEETSRKQRWLQFGETSDPLTGEKLKQIQKEIQEQETLLQGYQQENERLYNQVKDLQEQNKKNEERMFKENQNLFSELASLKEQMHKNHFLSQAVENTEPTKNQSFTDLLAELRAAQKEKNHLMEDIKRLKQDKQALEVDLEKVKRERDQAKDQIAYATGEKLYEIKILEETHKQEVSRLQKRLQWYAENQELLDRDAARLREANEETEKLRLEIEKLKTESGSPATQQRLRSKERALDAKRIQDLERQVKEMEGILKRRYPNSLPALILAASAAGDSVDRNTVEFMERRIKKLEADLEGKDEEAKKSLRTMEQQFQKMKIQYEQRLEEQEQLLAHRQKEAPQSQRNSSSRLKALETELGDIKEAHQITVRKLEAEIDVLKHQNADLEHKKNDKGDQGLQSIEFQVEQAQARAKLARLNEELAAKGREIQDLTKTVERLQKERRMMLSRQIPRSREETAAKRLKKDPNRGHGNAFPETLDGKLYHPHTFTDSHISEVLEENYRLRSELEGLILERSKLKMESEAAVCQLENSMKRVKDDAAAHIASLKASHEREIEKLLCQNAIENSSSKVAELNRKIATQEVLLKHFQGQVNELQGKQESLAVSQVREEILQKQITKLLEELKEAKENHTPEMKHFMGLERKIKQMEMRHRQREQELQQIIQQTRQVVETEQNKEVEKWKRLAQLKNRELDKFRTELDSILDVLRELHRQGVVVPMALAGEENTAEF
As for B1, the binding entry in test [1] is “binds”.

B2: GFP-tagged KIF27-CC2 (aa 694-1401) (domain or fragment, UniProt Q86VH2 694-1401)
chain: EDLKIDCLQESQELNLQKLKNSERILTEAKQKMRELTINIKMKEDLIKELIKTGNDAKSVSKQYSLKVTKLEHDAEQAKVELIETQKQLQELENKDLSDVAMKVKLQKEFRKKMDAAKLRVQVLQKKQQDSKKLASLSIQNEKRANELEQSVDHMKYQKIQLQRKLREENEKRKQLDAVIKRDQQKIKEIQLKTGQEEGLKPKAEDLDACNLKRRKGSFGSIDHLQKLDEQKKWLDEEVEKVLNQRQELEELEADLKKREAIVSKKEALLQEKSHLENKKLRSSQALNTDSLKISTRLNLLEQELSEKNVQLQTSTAEEKTKISEQVEVLQKEKDQLQKRRHNVDEKLKNGRVLSPEEEHVLFQLEEGIEALEAAIEYRNESIQNRQKSLRASFHNLSRGEANVLEKLACLSPVEIRTILFRYFNKVVNLREAERKQQLYNEEMKMKVLERDNMVRELESALDHLKLQCDRRLTLQQKEHEQKMQLLLHHFKEQDGEGIMETFKTYEDKIQQLEKDLYFYKKTSRDHKKKLKELVGEAIRRQLAPSEYQEAGDGVLKPEGGGMLSEELKWASRPESMKLSGREREMDSSASSLRTQPNPQKLWEDIPELPPIHSSLAPPSGHMLGNENKTETDDNQFTKSHSRLSSQIQVVGNVGRLHGVTPVKLCRKELRQISALELSLRRSSLGVGIGSMAADSIEVSRKPRDLKT
On to B2, for which, in test [2], the binding entry is recorded as “binds”.

The values are drawn from publication doi:10.1101/2025.01.10.632296.
